Experimental data as given in paper PMC6538776, “The Bacterial DNA Binding Protein MatP Involved in Linking the Nucleoid Terminal Domain to the Divisome at Midcell Interacts with Lipid Membranes” (mBio, 2018).

Target: T1, MatP (Escherichia coli) (UniProt P0A8N0)
T1 sequence (looked up, limits assumed): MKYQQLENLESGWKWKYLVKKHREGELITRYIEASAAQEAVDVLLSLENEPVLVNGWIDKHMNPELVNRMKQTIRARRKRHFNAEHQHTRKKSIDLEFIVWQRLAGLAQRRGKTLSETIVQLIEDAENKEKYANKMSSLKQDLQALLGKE
Test: fluorescence anisotropy
Conditions: 500 mM KCl, interaction greatly hindered; 50 mM Tris-HCl, 300 mM KCl, 5 mM MgCl2, pH 7.5; temperature not stated; matS-Fl 10 nM in anisotropy titrations; recombinant protein; protein details: untagged (N-terminal His6 removed by thrombin); label: 5'-fluorescein on sense strand

Sequence: AAAGTGACACTGTCACCTT (double strand) [matS-Fl (matS19)]
- binding result: binds more weakly

Construct, isoform or probe ends are uncertain for at least one entry. A weaker result is weaker than the reference pair of the same experiment. Protein sequences can lack the tags named with them.
